Data on two substances can be found in article PMC8801414.

This assay concerns the target T1, GFP-tagged TXNIP full length (F) (UniProt Q9H3M7).
T1 sequence: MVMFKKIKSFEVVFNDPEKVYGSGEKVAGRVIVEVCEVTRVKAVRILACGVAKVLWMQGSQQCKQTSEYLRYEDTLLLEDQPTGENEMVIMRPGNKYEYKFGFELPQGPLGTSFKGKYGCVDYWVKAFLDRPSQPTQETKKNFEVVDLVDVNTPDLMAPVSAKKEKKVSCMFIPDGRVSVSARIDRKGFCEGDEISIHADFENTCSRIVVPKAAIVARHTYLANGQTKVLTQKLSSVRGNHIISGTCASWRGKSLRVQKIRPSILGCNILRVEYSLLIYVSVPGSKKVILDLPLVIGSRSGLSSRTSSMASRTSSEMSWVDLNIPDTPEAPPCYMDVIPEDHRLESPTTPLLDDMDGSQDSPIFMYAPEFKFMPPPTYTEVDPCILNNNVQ
The assay can be described thus: co-IP; HEK293T cells co-transfected with tagged constructs, lysed 24 h later; IP with anti-Myc (NLRP3 constructs) or anti-GFP (TXNIP constructs) antibody, Western blot for HA and the bait's tag. (A western blot detects proteins with antibodies after separation by electrophoresis.)

These are yes or no findings as the source states them, for the method shown. In cells and extracts the contact can be indirect. A result given as binding can be weak or reduced; the word gives no strength. Tags and fused reporters may be left off the sequences shown.

As to “HA-tagged PARP-1, DNA binding domain deleted (dDBD) (domain or fragment)”, the binding result was “binds”.
To “HA-tagged PARP-1, catalytic domain deleted (dCD) (domain or fragment)” belongs “binds”.
